Experimental data from paper PMC8514785.
No constants are given. Whether binding was seen depends on the method and setting. In cells and extracts the contact can be indirect. For part of these data: Binding calls can cover weak binding; strength is not graded here. For part of these data: Where a sequence is shown, tags or fusion partners need not be part of it.

By UniProt entry, the sequences of proteins in these tests, tags left out. Where a name states a change or a piece, a line headed by the entry shows the natural chain unless it says otherwise.
UniProt P05804: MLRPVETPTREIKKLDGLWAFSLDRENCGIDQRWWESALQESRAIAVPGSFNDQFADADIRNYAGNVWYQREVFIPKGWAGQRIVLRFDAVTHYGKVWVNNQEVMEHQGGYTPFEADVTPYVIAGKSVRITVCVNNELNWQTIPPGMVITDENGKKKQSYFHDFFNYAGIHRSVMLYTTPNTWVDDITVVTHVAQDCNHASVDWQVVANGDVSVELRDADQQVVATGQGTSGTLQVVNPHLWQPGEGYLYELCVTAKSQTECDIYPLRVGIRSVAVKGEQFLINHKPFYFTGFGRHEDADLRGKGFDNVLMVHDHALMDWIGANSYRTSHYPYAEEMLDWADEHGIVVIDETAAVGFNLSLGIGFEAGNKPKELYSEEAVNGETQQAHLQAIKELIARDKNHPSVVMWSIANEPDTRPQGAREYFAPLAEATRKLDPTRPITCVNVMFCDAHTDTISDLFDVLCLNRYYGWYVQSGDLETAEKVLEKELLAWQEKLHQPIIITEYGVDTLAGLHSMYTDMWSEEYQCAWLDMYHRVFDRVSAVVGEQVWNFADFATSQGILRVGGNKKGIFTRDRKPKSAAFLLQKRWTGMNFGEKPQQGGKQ
UniProt P55852: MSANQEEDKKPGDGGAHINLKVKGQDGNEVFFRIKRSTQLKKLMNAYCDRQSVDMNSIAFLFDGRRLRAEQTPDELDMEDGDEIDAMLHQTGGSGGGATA
UniProt Q9FLP5: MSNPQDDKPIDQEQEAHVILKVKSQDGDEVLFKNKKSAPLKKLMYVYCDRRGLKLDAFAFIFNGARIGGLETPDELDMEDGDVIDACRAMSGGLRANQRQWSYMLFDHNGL

How the values were obtained:
Test in all cases: split reporter; BiFC in N. benthamiana leaves; Agrobacterium strains with the BiFC vectors mixed at equal density and infiltrated; imaged 48 hpi by confocal microscopy (YFP reconstitution)
[1] = target: T1, nVenus-SRFR1 (SUPPRESSOR OF rps4-RLD1) (Arabidopsis thaliana) (UniProt F4JS25)
T1 sequence: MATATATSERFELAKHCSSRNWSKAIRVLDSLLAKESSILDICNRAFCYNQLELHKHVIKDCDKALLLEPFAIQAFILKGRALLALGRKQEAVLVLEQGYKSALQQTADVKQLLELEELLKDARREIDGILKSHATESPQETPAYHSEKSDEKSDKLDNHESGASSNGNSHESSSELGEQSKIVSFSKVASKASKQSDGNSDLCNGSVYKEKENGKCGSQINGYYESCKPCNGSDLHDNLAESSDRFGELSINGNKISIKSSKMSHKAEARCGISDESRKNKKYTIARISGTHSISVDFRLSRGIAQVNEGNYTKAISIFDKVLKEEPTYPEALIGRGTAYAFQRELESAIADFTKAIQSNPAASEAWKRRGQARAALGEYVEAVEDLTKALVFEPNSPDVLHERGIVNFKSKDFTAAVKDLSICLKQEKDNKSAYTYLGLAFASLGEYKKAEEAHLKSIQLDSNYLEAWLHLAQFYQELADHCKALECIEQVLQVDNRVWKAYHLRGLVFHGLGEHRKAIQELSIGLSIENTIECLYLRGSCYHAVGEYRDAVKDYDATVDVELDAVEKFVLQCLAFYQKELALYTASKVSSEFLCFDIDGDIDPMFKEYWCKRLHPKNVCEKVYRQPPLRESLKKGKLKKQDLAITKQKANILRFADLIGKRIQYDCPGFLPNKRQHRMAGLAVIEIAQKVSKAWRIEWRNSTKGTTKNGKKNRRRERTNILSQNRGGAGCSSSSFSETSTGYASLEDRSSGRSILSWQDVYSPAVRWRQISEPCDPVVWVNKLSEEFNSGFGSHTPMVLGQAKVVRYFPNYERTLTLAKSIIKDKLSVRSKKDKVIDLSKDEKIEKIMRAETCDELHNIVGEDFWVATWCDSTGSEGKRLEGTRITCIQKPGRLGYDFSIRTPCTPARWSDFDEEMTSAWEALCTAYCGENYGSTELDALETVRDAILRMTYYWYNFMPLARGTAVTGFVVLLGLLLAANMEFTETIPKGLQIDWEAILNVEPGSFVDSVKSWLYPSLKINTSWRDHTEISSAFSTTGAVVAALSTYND

[2] = target: beta-glucuronidase (GUS) BiFC fusion used as negative control against the SUMOs (UniProt P05804)
[3] = target: T2, EDS1 (ENHANCED DISEASE SUSCEPTIBILITY 1) BiFC fusion (Arabidopsis thaliana) (UniProt Q9XF23)
T2 sequence: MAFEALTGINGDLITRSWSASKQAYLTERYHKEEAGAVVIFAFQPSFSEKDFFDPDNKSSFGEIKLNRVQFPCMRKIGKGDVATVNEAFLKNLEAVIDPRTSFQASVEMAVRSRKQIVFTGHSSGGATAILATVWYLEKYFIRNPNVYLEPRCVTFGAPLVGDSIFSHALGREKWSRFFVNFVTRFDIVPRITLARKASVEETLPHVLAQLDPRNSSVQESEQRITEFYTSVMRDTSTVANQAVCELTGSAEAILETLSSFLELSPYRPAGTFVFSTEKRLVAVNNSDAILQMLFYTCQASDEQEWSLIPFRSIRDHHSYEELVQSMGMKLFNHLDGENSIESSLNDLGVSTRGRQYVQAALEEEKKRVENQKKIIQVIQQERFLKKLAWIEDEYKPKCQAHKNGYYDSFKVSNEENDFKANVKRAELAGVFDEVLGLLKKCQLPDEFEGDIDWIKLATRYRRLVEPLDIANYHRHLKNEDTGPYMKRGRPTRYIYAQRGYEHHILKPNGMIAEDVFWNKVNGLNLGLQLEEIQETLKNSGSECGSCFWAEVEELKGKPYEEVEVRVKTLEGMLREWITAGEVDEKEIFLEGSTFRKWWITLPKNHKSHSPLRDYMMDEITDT

binding [1]	binding [2]	binding [3]	Substance
no binding	no binding	no binding	cCFP-SUMO1 AA (SUMOylation-deficient form) (from UniProt P55852)
binds	no binding	binds	cCFP-SUMO1 GG (SUMOylation-competent form) (from UniProt P55852)
binds	no binding	no binding	cCFP-SUMO3 AA (SUMOylation-deficient form) (from UniProt Q9FLP5)
binds	no binding	no binding	cCFP-SUMO3 GG (SUMOylation-competent form) (from UniProt Q9FLP5)
